This is an account of results in publication PMC12727705.

The target of the test is T1, DAF-16::TurboID::mNeongreen::3xFLAG (C. elegans) (UniProt O16850).
T1 sequence: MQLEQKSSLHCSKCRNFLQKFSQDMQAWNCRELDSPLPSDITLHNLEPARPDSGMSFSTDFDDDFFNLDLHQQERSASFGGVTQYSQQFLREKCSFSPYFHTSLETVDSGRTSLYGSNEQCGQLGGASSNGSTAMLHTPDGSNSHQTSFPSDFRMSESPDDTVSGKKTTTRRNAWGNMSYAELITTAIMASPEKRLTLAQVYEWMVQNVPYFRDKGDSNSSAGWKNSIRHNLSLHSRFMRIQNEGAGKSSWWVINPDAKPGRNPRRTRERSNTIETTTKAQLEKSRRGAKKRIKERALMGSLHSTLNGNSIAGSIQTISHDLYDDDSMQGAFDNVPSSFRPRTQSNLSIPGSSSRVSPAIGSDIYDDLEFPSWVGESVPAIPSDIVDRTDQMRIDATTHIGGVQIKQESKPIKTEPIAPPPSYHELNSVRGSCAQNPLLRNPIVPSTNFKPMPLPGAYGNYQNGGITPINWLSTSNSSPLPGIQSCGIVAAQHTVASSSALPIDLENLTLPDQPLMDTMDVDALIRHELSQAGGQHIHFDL
The test can be described thus: proximity labelling; TurboID fused to endogenous DAF-16 in living C. elegans, wild-type (cytoDAF-16) or daf-2(e1370) (nucDAF-16) background; L4/young adults, 1 mM biotin in M9 for 2 h at 21 °C; biotinylated proteins affinity purified on streptavidin and identified by mass spectrometry; control: wild type without ….

No constants are given. Whether binding was seen depends on the method and setting. Binding seen in cells or lysates may run through a third protein. A yes stands for co-enrichment or nearness to the bait. Other partners may have been found. Where a sequence is shown, tags or fusion partners need not be part of it.

B1: ZFP-1 (protein, UniProt P34447 1-867)
chain: MKEMVGGCCVCADENGWTDNPLIYCDGENCEVAVHQGCYGIQEVPEGEWFCAKCTKASAMMPGSINEATFCCQLCPFDYGALKKTDRNGWAHVICALYIPEVRFGNVHSMEPVILNDVPTDKFNKLCYICNEERPNDAKKGACMSCNKSTCKRSFHVTCAQRKGLLCEEGAISRNVKYCGYCENHLKKAINDPAIKVIPACPPVQRLSKEQDKKKTVLLTSLPLPPPAPRLHMLADPLPIKSNKVNNVLGLGSAINAVSLEERPASGSTVNSGIFVPPPTAFSPPLTTSSRSSVAQDPSPPLTINKNSLSSSGPLIPSTAHLSATTASATPIMANGSTLPPSSETTVGTHCLQQLQIQSAAAAAITQNQIGPSELNGYPAASQLSSFMHEIPARNTTSVASLLPPGAAEYHLNGSGDEEKTVKAVLTAPLTKAKRIRDSKNDMMDKTHKRPRANARPPAVLGSMSSGSSGGTVGKSPSMQRLQNLVAPIVSETVTDFQRDRVADRTAAERRAAAAQSQPSTSTNGGPNVTIPAVVEVHTNSTNSTNHQNNGLTQNAPASTSMQAGTSSNDGVISQNGTSSTSQSNRLNLPSFMEQLLERQWDQGSSLLMANAHFDVAQLLSCLFQLKSENFRLEENLSGLRKRRDHLFALNSRLAEVNTLDVSKRQRSDGLLLQQQIAHHLDPTSIVPKAEVHKQEPLSAPTSVPLPANHSSSLFEDIKAPKATYSRKTPSNIPLTVPLSTAATALTTTTAASSGAPVNSNIQNHRATPSTAGAPMAATPIMTAVTSANELAALSPERAQALLNMYRMPLDANVAAQLSMITNFPGQVNPSLFSRLLAVNMMNGGLQPNGQPLSALPPPTSATPNGK
Regarding B1, the binding entry is “binds”.
